Experimental data published in the supplement of paper PMC10849652.
Some of the results follow. Residues, ends and D or L forms follow the SMILES beside them. *: point of attachment. Cbz = O=C(OCc1ccccc1)*

Protein sequences, listed by entry. Tags and fused reporters are not part of them. Lines headed by an entry give the natural chain unless they say otherwise; changes in a name come on top.
UniProt Q9NZJ9: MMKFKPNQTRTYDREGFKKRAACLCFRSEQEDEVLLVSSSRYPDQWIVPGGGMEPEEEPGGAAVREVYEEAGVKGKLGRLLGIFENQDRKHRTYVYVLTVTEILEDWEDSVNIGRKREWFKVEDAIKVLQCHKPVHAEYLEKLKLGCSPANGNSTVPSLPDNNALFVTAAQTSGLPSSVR
UniProt O43482, whole entry, looked up: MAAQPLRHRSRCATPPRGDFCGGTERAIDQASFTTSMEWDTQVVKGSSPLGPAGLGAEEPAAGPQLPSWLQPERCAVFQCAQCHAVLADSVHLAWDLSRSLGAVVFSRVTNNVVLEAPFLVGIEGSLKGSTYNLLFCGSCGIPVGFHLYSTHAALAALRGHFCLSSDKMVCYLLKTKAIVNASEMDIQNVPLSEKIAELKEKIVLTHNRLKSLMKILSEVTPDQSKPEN
UniProt P35658: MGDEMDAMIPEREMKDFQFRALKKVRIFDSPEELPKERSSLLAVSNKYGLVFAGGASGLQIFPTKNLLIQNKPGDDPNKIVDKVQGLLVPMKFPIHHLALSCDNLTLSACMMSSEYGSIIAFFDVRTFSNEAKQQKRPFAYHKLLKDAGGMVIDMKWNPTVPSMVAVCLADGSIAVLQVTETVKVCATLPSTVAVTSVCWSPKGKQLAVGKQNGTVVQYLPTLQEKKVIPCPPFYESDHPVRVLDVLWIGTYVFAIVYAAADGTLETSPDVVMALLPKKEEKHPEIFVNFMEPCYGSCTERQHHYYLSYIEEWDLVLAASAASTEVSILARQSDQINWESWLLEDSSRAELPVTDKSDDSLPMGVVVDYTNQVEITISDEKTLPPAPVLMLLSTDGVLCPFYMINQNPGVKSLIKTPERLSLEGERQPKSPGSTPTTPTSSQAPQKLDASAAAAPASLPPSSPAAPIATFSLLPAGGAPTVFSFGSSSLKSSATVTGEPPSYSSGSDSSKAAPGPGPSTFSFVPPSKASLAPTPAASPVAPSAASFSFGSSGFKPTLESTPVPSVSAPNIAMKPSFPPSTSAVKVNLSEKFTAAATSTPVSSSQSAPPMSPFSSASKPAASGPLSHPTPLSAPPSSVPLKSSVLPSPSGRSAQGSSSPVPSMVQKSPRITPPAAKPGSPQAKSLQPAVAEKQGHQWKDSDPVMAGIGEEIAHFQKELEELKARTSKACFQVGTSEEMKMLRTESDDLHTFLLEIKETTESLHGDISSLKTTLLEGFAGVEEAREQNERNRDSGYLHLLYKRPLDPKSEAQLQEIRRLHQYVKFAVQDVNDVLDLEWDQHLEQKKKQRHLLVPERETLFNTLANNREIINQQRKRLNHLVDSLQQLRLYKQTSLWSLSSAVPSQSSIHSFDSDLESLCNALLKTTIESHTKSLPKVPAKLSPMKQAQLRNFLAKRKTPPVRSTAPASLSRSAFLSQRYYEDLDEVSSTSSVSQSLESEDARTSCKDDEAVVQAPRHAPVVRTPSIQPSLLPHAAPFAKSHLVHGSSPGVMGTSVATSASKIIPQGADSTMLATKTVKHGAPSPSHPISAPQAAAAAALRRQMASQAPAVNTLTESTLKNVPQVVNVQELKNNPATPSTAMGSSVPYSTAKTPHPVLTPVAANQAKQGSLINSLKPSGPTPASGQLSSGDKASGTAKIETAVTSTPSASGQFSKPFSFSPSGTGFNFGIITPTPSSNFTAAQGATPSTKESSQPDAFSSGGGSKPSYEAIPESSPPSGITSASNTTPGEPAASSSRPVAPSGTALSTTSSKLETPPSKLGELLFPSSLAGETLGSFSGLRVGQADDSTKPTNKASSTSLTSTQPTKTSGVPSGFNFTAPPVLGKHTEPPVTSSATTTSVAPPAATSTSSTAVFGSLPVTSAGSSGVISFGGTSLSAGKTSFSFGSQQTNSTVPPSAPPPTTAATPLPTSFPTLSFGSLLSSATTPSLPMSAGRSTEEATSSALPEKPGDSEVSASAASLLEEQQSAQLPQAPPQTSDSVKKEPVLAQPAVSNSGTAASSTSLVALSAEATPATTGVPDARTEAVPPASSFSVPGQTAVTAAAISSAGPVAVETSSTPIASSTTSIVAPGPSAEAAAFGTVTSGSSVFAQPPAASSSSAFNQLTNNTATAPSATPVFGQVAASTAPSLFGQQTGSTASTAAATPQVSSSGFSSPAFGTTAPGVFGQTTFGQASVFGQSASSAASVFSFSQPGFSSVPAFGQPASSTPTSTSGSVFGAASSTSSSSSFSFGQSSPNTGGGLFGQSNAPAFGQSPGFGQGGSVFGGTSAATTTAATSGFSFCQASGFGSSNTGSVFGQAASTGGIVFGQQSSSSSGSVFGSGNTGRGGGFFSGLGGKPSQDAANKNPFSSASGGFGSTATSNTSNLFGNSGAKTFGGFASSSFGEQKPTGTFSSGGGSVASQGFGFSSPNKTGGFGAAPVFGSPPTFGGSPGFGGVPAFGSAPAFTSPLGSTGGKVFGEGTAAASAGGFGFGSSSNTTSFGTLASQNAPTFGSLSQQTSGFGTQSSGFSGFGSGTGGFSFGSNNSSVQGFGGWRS
UniProt Q13438: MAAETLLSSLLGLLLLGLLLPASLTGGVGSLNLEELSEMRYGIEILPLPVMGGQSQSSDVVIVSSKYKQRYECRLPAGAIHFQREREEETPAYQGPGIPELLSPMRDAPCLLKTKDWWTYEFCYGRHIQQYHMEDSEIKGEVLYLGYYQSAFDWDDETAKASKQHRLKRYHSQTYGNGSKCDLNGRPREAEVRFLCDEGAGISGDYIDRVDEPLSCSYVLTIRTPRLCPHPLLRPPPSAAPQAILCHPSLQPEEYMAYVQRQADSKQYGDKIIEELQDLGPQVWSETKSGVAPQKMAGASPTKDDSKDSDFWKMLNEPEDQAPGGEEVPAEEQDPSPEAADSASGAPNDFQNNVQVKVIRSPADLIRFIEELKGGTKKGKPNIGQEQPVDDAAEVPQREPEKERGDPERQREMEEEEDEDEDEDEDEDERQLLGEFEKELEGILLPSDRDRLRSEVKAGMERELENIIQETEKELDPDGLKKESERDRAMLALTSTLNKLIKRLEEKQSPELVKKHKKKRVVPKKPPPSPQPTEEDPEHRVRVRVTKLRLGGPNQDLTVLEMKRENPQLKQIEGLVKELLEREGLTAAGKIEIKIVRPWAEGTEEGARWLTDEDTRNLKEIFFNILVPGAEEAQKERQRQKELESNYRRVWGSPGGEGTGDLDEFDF
UniProt P53384: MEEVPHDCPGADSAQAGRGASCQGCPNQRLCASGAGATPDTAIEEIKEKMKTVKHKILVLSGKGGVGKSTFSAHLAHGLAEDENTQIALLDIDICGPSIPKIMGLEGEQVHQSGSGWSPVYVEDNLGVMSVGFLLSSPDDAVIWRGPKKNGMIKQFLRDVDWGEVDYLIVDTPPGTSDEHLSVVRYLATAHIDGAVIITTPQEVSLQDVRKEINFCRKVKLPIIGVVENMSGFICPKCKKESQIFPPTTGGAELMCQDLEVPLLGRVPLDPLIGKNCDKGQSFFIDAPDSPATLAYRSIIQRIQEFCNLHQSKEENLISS
UniProt Q96FW1, whole entry, looked up: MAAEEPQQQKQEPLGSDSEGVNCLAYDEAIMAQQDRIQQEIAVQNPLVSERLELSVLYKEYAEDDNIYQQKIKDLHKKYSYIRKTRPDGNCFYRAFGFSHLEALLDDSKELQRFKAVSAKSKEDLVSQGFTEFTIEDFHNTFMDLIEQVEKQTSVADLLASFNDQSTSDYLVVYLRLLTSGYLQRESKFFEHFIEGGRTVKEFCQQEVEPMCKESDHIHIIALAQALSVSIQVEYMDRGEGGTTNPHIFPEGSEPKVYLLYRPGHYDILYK
UniProt P00480: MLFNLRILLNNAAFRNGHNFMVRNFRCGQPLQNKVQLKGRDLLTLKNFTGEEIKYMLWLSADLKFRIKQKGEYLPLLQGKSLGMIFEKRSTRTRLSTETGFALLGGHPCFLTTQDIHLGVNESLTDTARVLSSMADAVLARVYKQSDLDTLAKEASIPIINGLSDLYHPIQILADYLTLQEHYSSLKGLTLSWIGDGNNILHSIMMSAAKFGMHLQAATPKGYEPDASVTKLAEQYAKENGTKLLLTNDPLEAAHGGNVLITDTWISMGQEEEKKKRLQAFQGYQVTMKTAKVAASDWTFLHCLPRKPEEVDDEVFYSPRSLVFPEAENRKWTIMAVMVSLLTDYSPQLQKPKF
UniProt Q8IVD9: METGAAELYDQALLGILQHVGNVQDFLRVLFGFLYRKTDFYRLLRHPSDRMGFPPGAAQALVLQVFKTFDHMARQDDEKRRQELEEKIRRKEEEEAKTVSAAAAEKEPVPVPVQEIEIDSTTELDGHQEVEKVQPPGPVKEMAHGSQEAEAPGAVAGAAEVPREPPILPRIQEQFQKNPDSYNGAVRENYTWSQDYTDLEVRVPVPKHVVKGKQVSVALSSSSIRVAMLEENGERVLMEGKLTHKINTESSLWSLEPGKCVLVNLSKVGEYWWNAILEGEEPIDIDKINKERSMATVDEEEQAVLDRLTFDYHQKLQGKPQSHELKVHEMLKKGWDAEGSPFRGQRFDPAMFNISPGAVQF
UniProt Q9BQG2: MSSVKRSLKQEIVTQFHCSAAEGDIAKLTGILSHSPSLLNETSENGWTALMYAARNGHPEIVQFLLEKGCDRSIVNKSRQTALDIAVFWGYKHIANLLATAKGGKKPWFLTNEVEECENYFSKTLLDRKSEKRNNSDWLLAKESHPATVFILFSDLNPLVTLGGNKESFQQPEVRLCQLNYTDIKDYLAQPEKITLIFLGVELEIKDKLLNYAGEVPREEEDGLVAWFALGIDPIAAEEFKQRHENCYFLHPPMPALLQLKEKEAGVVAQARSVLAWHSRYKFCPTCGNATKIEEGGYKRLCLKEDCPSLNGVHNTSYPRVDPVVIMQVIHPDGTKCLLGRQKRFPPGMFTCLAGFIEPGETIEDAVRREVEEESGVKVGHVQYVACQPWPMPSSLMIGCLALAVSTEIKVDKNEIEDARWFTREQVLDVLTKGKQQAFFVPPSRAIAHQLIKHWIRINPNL
UniProt O75694: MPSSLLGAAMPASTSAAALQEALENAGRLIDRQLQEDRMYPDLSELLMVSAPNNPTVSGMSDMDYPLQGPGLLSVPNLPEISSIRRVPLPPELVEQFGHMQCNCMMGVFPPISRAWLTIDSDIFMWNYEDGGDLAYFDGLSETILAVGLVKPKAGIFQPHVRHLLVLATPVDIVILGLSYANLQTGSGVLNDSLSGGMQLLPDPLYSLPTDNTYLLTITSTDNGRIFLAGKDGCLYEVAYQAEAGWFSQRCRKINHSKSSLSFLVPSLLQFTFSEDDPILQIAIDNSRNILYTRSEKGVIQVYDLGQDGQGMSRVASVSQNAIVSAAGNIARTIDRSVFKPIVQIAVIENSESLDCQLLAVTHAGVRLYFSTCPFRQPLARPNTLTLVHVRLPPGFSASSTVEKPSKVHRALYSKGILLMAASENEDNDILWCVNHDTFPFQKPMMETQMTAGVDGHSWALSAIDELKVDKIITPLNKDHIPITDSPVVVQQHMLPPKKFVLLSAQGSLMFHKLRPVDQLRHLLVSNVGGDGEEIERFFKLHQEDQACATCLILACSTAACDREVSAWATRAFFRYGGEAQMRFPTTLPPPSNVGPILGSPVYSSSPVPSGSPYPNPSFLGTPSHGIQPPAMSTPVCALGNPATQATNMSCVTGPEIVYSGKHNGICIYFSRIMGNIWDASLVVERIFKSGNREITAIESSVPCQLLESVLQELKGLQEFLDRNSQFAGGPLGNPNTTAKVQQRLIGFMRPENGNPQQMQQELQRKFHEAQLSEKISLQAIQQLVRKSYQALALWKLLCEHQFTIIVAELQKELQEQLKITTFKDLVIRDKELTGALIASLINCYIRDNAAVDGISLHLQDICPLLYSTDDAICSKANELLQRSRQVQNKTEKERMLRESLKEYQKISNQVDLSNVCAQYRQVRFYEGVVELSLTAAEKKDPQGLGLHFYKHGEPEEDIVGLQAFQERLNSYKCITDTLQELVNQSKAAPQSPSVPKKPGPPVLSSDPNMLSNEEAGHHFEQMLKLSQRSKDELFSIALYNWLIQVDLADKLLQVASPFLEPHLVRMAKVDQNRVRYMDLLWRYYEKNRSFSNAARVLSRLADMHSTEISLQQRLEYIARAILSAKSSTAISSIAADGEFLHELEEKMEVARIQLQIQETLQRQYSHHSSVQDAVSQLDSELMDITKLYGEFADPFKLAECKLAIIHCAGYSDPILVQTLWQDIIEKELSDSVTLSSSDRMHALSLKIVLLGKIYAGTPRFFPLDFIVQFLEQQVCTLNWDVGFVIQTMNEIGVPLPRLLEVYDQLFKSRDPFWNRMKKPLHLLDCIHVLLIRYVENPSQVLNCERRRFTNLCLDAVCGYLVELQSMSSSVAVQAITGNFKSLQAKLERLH

What was measured:
Assay in all cases: log2 fold change, soluble protein after heating vs DMSO (PISA); higher = thermal stabilisation; K562 cells, 10 uM, 30 min; active = over 0.2 and 3.5 SD of the protein, either way, in both replicates (recomputed)
IRAK-1-4 Inhibitor I = compound: C1COCCN1CCN2C3=CC=CC=C3N=C2NC(=O)C4=CC(=CC=C4)[N+](=O)[O-] [IRAK-1-4 Inhibitor I]
Outline: (§1)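 K562 cells at 2×10^6 cells/mL were exposed to 10 μM compound for 30 min, then aliquots were heated for 3 min across 48°C-58°C, pooled, and extracted in PBS containing 0.5% NP-40 at 4°C. The supernatant after 21,000xg for 90 min was taken as soluble protein and measured by TMTpro 16plex LC-MS/MS with channel sums equalised. Thermal stability is reported relative to control samples, with values from duplicates. Fold changes are given on a log2 scale.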

ibrutinib = compound: C=CC(=O)N1CCC[C@@H](n2nc(-c3ccc(Oc4ccccc4)cc3)c3c(N)ncnc32)C1 [ibrutinib]
Outline: as §1

[1] = compound: CC(=O)c1cnc2ccc(-c3cc(Cl)c(O)c(Cl)c3)nc2c1N[C@H]1CC[C@H](CN(C)C)CC1
Outline: as §1

ralimetinib = compound: CC(C)(C)Cn1c(N)nc2ccc(-c3[nH]c(C(C)(C)C)nc3-c3ccc(F)cc3)nc21 [ralimetinib]
Outline: as §1

[2] = compound: CC(C)(O)CC(=O)NCCn1ccc2ncnc(Nc3ccc(Oc4cccc(C(F)(F)F)c4)c(Cl)c3)c21
Outline: as §1

[3] = compound: CC(C)C1=C2N=C(C=C(N2N=C1)NCC3=CC=CC=C3)NCCCCCCN
Outline: as §1

[4] = compound: CC(C)C[C@@H](C=O)NC(=O)[C@H](CC(C)C)NC(=O)[C@H](CC(C)C)NC(=O)OCc1ccccc1
Outline: as §1

pinometostat = compound: CC(C)N(C[C@H]1O[C@@H](n2cnc3c(N)ncnc32)[C@H](O)[C@@H]1O)[C@H]1C[C@@H](CCc2nc3cc(C(C)(C)C)ccc3[nH]2)C1 [pinometostat]
Outline: as §1

[5] = compound: CC1=C(C(CC(=O)N1)C2=CC=C(C=C2)C(F)(F)F)C(=O)NC3=C(C=C4C(=C3)C=NN4)F
Outline: as §1

[6] = compound: CC1=C(C2=C(C=C1)C(=O)C3=CC=CC=C3N2CCCN)C
Outline: as §1

[7] = compound: CC1=C(C=C(C=C1)NC(=O)C2=CC(=CC=C2)C(C)(C)C#N)NC3=CC4=C(C=C3)N=CN(C4=O)C
Outline: as §1

[8] = compound: CC1=C(C=C(C=C1)NC(=O)C2=CC(=CC=C2)N(C)C)NC(=O)C3=CC=C(C=C3)O
Outline: as §1

[9] = compound: CC1=CC=C(C=C1)SC2=C3C=C(SC3=CN=C2)C(=O)N
Outline: as §1

[10] = compound: CC1=NC(=CC=C1)C2=C(N=C(N2)C(C)(C)C)C3=CC4=NC=CN=C4C=C3
Outline: as §1

Nexturastat A = compound: CCCCN(Cc1ccc(C(=O)NO)cc1)C(=O)Nc1ccccc1 [Nexturastat A]
Outline: as §1

vemurafenib = compound: CCCS(=O)(=O)Nc1ccc(F)c(C(=O)c2c[nH]c3ncc(-c4ccc(Cl)cc4)cc23)c1F [vemurafenib]
Outline: as §1

[11] = compound: CCCS(=O)(=O)Nc1ccc(F)c(C(=O)c2c[nH]c3ncc(Cl)cc23)c1F
Outline: as §1

[12] = compound: CCCc1cc(C)[nH]c(=O)c1CNC(=O)c1cc(-c2ccnc(N3CCN(C)CC3)c2)cc2c1cnn2C(C)C
Outline: as §1

givinostat = compound: CCN(CC)Cc1ccc2cc(COC(=O)Nc3ccc(C(=O)NO)cc3)ccc2c1 [givinostat]
Outline: as §1

barasertib = compound: CCN(CCCOc1ccc2c(Nc3cc(CC(=O)Nc4cccc(F)c4)[nH]n3)ncnc2c1)CCOP(=O)(O)O [barasertib]
Outline: as §1

Measured: log2 fold change

OXCT1 (UniProt P55809)
inactive: IRAK-1-4 Inhibitor I 0.023 | ibrutinib -0.008 | [1] -0.004 | ralimetinib -0.006 | [2] -0.006 | [3] 0.016 | [4] -0.009 | pinometostat -0.021 | [5] -0.022 | [6] -0.003 | [7] 0.06 | [8] -0.001 | [9] -0.007 | [10] 0.015 | Nexturastat A -0.078 | vemurafenib 0.038 | [11] 0.004 | [12] 0.006 | givinostat 0.019 | barasertib -0.001

NUDT4 (UniProt Q9NZJ9)
inactive: IRAK-1-4 Inhibitor I -0.029 | ibrutinib 0.032 | [1] 0.019 | ralimetinib -0.005 | [2] -0.057 | [3] -0.178 | [4] 0.046 | pinometostat -0.005 | [5] -0.017 | [6] -0.095 | [7] 0.047 | [8] -0.048 | [9] -0.018 | [10] 0.018 | Nexturastat A -0.01 | vemurafenib 0.017 | [11] 0.034 | [12] 0.004 | givinostat 0.064 | barasertib 0.042

OMA1 (UniProt Q96E52)
inactive: IRAK-1-4 Inhibitor I 0.002 | ibrutinib -0.037 | [1] 0.017 | ralimetinib 0.01 | [2] 0.006 | [3] -0.023 | [4] -0.169 | pinometostat -0.02 | [5] 0.094 | [6] -0.007 | [7] -0.017 | [8] -0.023 | [9] 0.016 | [10] -0.018 | Nexturastat A -0.059 | vemurafenib 0.014 | [11] -0.001 | [12] -0.039 | givinostat 0.013 | barasertib -0.013

OGN (UniProt P20774)
inactive: IRAK-1-4 Inhibitor I -0.007 | ibrutinib 0.225 | [1] 0.014 | ralimetinib -0.13 | [2] 0.26 | [3] 0 | [4] 0.146 | pinometostat -0.031 | [5] -0.133 | [6] 0.019 | [7] 0.028 | [8] -0.031 | [9] 0.043 | [10] 0.037 | Nexturastat A -0.109 | vemurafenib 0.145 | [11] -0.027 | [12] 0.032 | givinostat -0.109 | barasertib 0.06

OIP5 (UniProt O43482)
inactive: IRAK-1-4 Inhibitor I 0.007 | ibrutinib 0.017 | [1] -0.104 | ralimetinib -0.098 | [2] 0.101 | [3] 0.024 | [4] 0.109 | pinometostat -0.044 | [5] 0.024 | [6] 0.006 | [7] -0.016 | [8] -0.008 | [9] 0.013 | [10] 0.087 | Nexturastat A 0.041 | vemurafenib -0.05 | [11] 0.029 | [12] -0.01 | givinostat -0.035 | barasertib -0.03

Looked up one by one from the list above (two):
OXCT1 (UniProt P55809)
inactive: IRAK-1-4 Inhibitor I 0.023 | ibrutinib -0.008 | [1] -0.004 | ralimetinib -0.006 | [2] -0.006 | [3] 0.016 | [4] -0.009 | pinometostat -0.021 | [5] -0.022 | [6] -0.003 | [7] 0.06 | [8] -0.001 | [9] -0.007 | [10] 0.015 | Nexturastat A -0.078 | vemurafenib 0.038 | [11] 0.004 | [12] 0.006 | givinostat 0.019 | barasertib -0.001

NUDT4 (UniProt Q9NZJ9)
inactive: IRAK-1-4 Inhibitor I -0.029 | ibrutinib 0.032 | [1] 0.019 | ralimetinib -0.005 | [2] -0.057 | [3] -0.178 | [4] 0.046 | pinometostat -0.005 | [5] -0.017 | [6] -0.095 | [7] 0.047 | [8] -0.048 | [9] -0.018 | [10] 0.018 | Nexturastat A -0.01 | vemurafenib 0.017 | [11] 0.034 | [12] 0.004 | givinostat 0.064 | barasertib 0.042

Next part

NUP214 isoform 5 (UniProt P35658)
inactive: IRAK-1-4 Inhibitor I -0.044 | ibrutinib -0.05 | [1] -0.023 | ralimetinib 0.147 | [2] 0 | [3] -0.159 | [4] 0.131 | pinometostat 0.262 | [5] -0.029 | [6] 0.024 | [7] -0.064 | [8] 0.035 | [9] -0.049 | [10] -0.027 | Nexturastat A 0.242 | vemurafenib 0.042 | [11] 0.024 | [12] 0.05 | givinostat 0.096 | barasertib 0.06

OS9 (UniProt Q13438)
inactive: IRAK-1-4 Inhibitor I -0.053 | ibrutinib 0.006 | [1] 0.002 | ralimetinib 0.014 | [2] -0.005 | [3] -0.018 | [4] 0.099 | pinometostat 0.015 | [5] 0.019 | [6] -0.067 | [7] 0.015 | [8] -0.008 | [9] -0.006 | [10] -0.006 | Nexturastat A 0.019 | vemurafenib -0.069 | [11] -0.001 | [12] -0.048 | givinostat 0.041 | barasertib -0.009

NUDT5 (UniProt Q9UKK9)
inactive: IRAK-1-4 Inhibitor I 0.029 | ibrutinib 0.004 | [1] 0.012 | ralimetinib -0.003 | [2] -0.015 | [3] 0.116 | [4] -0.043 | pinometostat -0.031 | [5] 0.023 | [6] -0.009 | [7] 0.02 | [8] 0.019 | [9] 0.026 | [10] 0.048 | Nexturastat A -0.089 | vemurafenib -0.013 | [11] -0.005 | [12] 0.008 | givinostat -0.002 | barasertib -0.012

NUBP1 (UniProt P53384)
inactive: IRAK-1-4 Inhibitor I 0.098 | ibrutinib -0.046 | [1] -0.067 | ralimetinib -0.118 | [2] -0.094 | [3] -0.057 | [4] -0.051 | pinometostat -0.068 | [5] 0.005 | [6] 0.015 | [7] -0.047 | [8] -0.017 | [9] 0.032 | [10] 0.011 | Nexturastat A -0.221 | vemurafenib 0.051 | [11] 0.007 | [12] 0.01 | givinostat 0.019 | barasertib 0.007

NUP50 (UniProt Q9UKX7)
inactive: IRAK-1-4 Inhibitor I 0.048 | ibrutinib 0.029 | [1] -0.005 | ralimetinib -0.019 | [2] 0.004 | [3] 0.07 | [4] 0.059 | pinometostat -0.025 | [5] 0.023 | [6] -0.073 | [7] -0.001 | [8] -0.005 | [9] -0.01 | [10] 0.009 | Nexturastat A -0.057 | vemurafenib -0.003 | [11] -0.023 | [12] -0.103 | givinostat 0.003 | barasertib -0.019

OTUB1 (UniProt Q96FW1)
inactive: IRAK-1-4 Inhibitor I 0.009 | ibrutinib -0.011 | [1] -0.024 | ralimetinib 0.018 | [2] -0.07 | [3] -0.051 | [4] -0.04 | pinometostat -0.016 | [5] -0.007 | [6] -0.004 | [7] -0.018 | [8] -0.016 | [9] 0.03 | [10] 0.049 | Nexturastat A -0.089 | vemurafenib 0.031 | [11] 0.051 | [12] -0.028 | givinostat 0.019 | barasertib -0.017

OTC (UniProt P00480)
inactive: IRAK-1-4 Inhibitor I -0.032 | ibrutinib -0.052 | [1] -0.166 | ralimetinib -0.364 | [2] 0.017 | [3] -0.142 | [4] 0.117 | pinometostat -0.016 | [5] 0.011 | [6] 0.063 | [7] -0.092 | [8] -0.006 | [9] -0.229 | [10] -0.09 | Nexturastat A -0.054 | vemurafenib -0.257 | [11] -0.344 | [12] -1.78 | givinostat -0.032 | barasertib 0.058

NUDCD3 (UniProt Q8IVD9)
inactive: IRAK-1-4 Inhibitor I -0.045 | ibrutinib -0.045 | [1] -0.005 | ralimetinib -0.022 | [2] -0.062 | [3] -0.13 | [4] 0.036 | pinometostat 0.021 | [5] -0.004 | [6] -0.034 | [7] 0.001 | [8] -0.106 | [9] 0.005 | [10] -0.012 | Nexturastat A -0.019 | vemurafenib 0.009 | [11] 0.03 | [12] 0 | givinostat 0.022 | barasertib 0.058

NUDT12 (UniProt Q9BQG2)
inactive: IRAK-1-4 Inhibitor I 0.032 | ibrutinib 0.026 | [1] 0.071 | ralimetinib 0.03 | [2] -0.042 | [3] 0.03 | [4] -0.028 | pinometostat -0.049 | [5] -0.039 | [6] 0.065 | [7] -0.026 | [8] -0.062 | [9] 0.003 | [10] 0.019 | Nexturastat A -0.039 | vemurafenib 0.062 | [11] 0.015 | [12] 0.011 | givinostat -0.005 | barasertib 0.026

NUP155 (UniProt O75694)
inactive: IRAK-1-4 Inhibitor I -0.129 | ibrutinib -0.027 | [1] 0.015 | ralimetinib 0.066 | [2] -0.08 | [3] -0.154 | [4] -0.011 | pinometostat -0.043 | [5] -0.031 | [6] 0.04 | [7] 0.099 | [8] -0.027 | [9] 0.038 | [10] 0.107 | Nexturastat A -0.049 | vemurafenib 0.018 | [11] 0.046 | [12] -0.034 | givinostat 0.006 | barasertib 0

NUP35 (UniProt Q8NFH5)
inactive: IRAK-1-4 Inhibitor I 0.048 | ibrutinib -0.053 | [1] -0.015 | ralimetinib -0.036 | [2] -0.119 | [3] -0.004 | [4] -0.015 | pinometostat -0.028 | [5] -0.088 | [6] -0.007 | [7] -0.035 | [8] -0.009 | [9] 0.06 | [10] 0.051 | Nexturastat A -0.061 | vemurafenib -0.008 | [11] 0.083 | [12] 0.011 | givinostat 0.046 | barasertib 0.047
